Binding result and binding signal data for six sequences are collected here from patent publication US20170267716.

For at least one entry, the source does not settle the construct or the ends of the probe. For some of these results: No signal at the amounts used counts as a negative. For some of these results: Whether high values mean tight binding is not given here for every scale. Where only a bound is given, the exact number is not on record here.

Holding throughout (experiment): pull-down
Data set [1] concerns IgE antibody (full-length) (Homo sapiens). Conditions: 5' azide (5AzideN), conjugated via DBCO click to pNIPAM (28 kDa), 5' T10 spacer, PBS, purified native protein, protein details: Athens Research & Technology, single-stranded DNA; for binding signal: affinity thermoprecipitation, 200 nM IgE, 1 mM MgCl2, 0.005% Tween-20, RT 1 h, eluted 0.5 M NaCl.
For data set [2], the target named is L-selectin (Homo sapiens) (UniProt P14151). The conditions noted are these: 5' azide (5AzideN), conjugated via DBCO click to pNIPAM (18 or 28 kDa), single-stranded DNA; for binding result: 5' T10 spacer, off-target control, no measurable recovery, HBS-P pH 7.4.
In data set [3] the test system is Thrombin. Conditions: 5' azide (5AzideN), conjugated via DBCO click to pNIPAM (18 or 28 kDa); 5' T10 spacer; only modest recovery; 200 nM protein, HBS-P pH 7.4, 150 mM NaCl; eluted 0.5 M NaCl; single-stranded DNA.

As to “TTTTTTTTTTCTGCTCGTTGGCTGAGGCCGTCTCGCGTCGCAGCGCTACGGCCCC [Extended IgE randomer]”, the binding result in data set [1] (randomer control, no measurable recovery, 1 mM MgCl2, 0.005% Tween-20, variant of Extended IgE aptamer) was “no binding”.
“TTTTTTTTTTGCGCGGGGCACGTTTATCCGTCCCTCCTAGTGGCGTGCCCCGCGC [Extended IgE aptamer]”: the binding signal in data set [1] (Example 8 first round ~52.7%, variant of IgE aptamer (IGE)) is 77 % recovery.
In the case of “TTTTTTTTTTGGGGCACGTTTATCCGTCCCTCCTAGTGGCGTGCCCC [IgE aptamer (IGE)]”, the binding signal in data set [1] (~75% recovered from spent CHO media (Example 7, p104)) is 55 % recovery.
For “TTTTTTTTTTGGTGGTGGTTGTGGT [Thrombin randomer]”, in data set [2] (variant of Thrombin aptamer), the binding result was “no binding”.
“TTTTTTTTTTGGTTGGTGTGGTTGG [Thrombin aptamer]”: the binding result in data set [2] was “no binding”; in data set [3] it was “binds”.
As to “TTTTTTTTTTTAGCCAAGGTAACCAGTACAAGGTGCTAAACGTAATGGCTTCGGCTTAC [L-Selectin aptamer]”, the binding signal in data set [2] (5' T spacer, affinity thermoprecipitation, 200 nM protein, HBS-P pH 7.4, 150 mM NaCl, RT 1 h, eluted in 1xTBE) is more than 60 % recovery.
